According to article PMC5393179:
These are yes or no findings as the source states them, for the method shown.

The chains behind the UniProt entries cited, without tags or fusion partners.
UniProt P0A6X3: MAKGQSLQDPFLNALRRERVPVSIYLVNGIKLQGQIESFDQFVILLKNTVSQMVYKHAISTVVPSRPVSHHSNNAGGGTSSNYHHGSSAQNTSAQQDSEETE

How the values were obtained:
[1] = target: Escherichia coli ProQ, full length (E. coli) (UniProt P45577); experiment: SEC-MALS; ProQ alone in solution; measured molecular mass 25,490 g/mol; both purified
[2] = target: Escherichia coli ProQ, full length (E. coli) (UniProt P45577); experiment: AUC; ProQ alone; sedimentation coefficient 1.72 S, frictional coefficient 1.67; both purified
[3] = target: Escherichia coli Hfq (E. coli) (UniProt P0A6X3); experiment: native gel or EMSA; ProQ and Hfq mixed, run on a native polyacrylamide gel and stained for protein; ProQ alone does not enter the gel; both purified
[4] = target: Escherichia coli Hfq (E. coli) (UniProt P0A6X3); experiment: SEC; ProQ and Hfq mixed (text: equimolar amounts; legend: 1:6 molar ratio) and run on a size exclusion column; eluted fractions analysed by SDS-PAGE; both purified

binding [1]: no binding
binding [2]: no binding
binding [3]: no binding
binding [4]: no binding
B1: Escherichia coli ProQ, full length (protein, UniProt P45577 1-232)
chain: MENQPKLNSSKEVIAFLAERFPHCFSAEGEARPLKIGIFQDLVDRVAGEMNLSKTQLRSALRLYTSSWRYLYGVKPGATRVDLDGNPCGELDEQHVEHARKQLEEAKARVQAQRAEQQAKKREAAATAGEKEDAPRRERKPRPTTPRRKEGAERKPRAQKPVEKAPKTVKAPREEQHTPVSDISALTVGQALKVKAGQNAMDATVLEITKDGVRVQLNSGMSLIVRAEHLVF
